## Library screening results

Values are the deposited “Percent Effect”, in %.
The record does not define 0% and 100%; most values in the screen are far below 50% and negative numbers occur (in some assays of this library far below -100).
This is an unselected part of the compounds tested.
Two or more numbers in one place are separate tests of the same structure; such repeats can differ widely.

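Viability assay of Plasmodium falciparum sporozoites; the read-out is not stated. The concentration is filed as 10 mM, unlikely as a test dose, so the dose is not known. Higher reads as lower viability (inferred: compounds with an IC50 in retests scored well above the rest). Strong results were mostly tested again. Of about 34,000 compounds tested this way, about 280 (0.84%) reached 50% or more in at least one test.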

SMILES	percent effect
CCn1c(CN(C)CC(=O)N(C)C)nc2c(F)cccc21	-20.36
Cn1cc(CN2CCCN(C(=O)c3ccc4c(c3)COC4)CC2)cn1	0.7335
Cc1cc(C)c2c(NCC3(O)CCCCC3)ncnc2n1	-27.54
CS(=O)(=O)NCc1n[nH]c2c1CCN(C(=O)c1ccsc1)C2	7.035
COc1c(C(=O)N2CCOCC2)cnc2c1c(C)nn2C	3.112
CC(C)NC(=O)N1CCC2(COCc3cnc(-c4cccnc4)nc32)C1 (centres unmarked)	-26.06
O=C(Nc1ccccn1)c1nc(N2CCCC2)ncc1Cl	1.302
COc1ccc(C(=O)N2CCC(Nc3ccc(C)nn3)CC2)cc1	12.65
O=c1c(NCCOCCO)c(N2CCN(c3ccccc3)CC2)c1=O	-3.361
Cc1cnn(CC(C)NCc2ccc(OCc3ccncc3)cc2)c1 (centres unmarked)	-22.02 & -7.399 & -6.818
CN1CCN(C2CCOCC2)CC12CCC(=O)N(CC1CC1)CC2 (centres unmarked)	-11.85
[H][C@@]12CN(C(=O)N(C)C)C[C@]1([H])C(=O)NC21CCN(C(=O)COC)CC1	17.11
CC[C@@H]1N(Cc2ccc(F)cc2)CCC[C@]12CCC(=O)N2CCOC.O=C(O)C(F)(F)F	11.49
OC1CCCOC12CCN(c1ncccn1)CC2 (centres unmarked)	-386 & -390 & -2.453
N#CC1CCCN(S(=O)(=O)c2ccc(C(=O)NCC(F)F)cc2)C1 (centres unmarked)	-18.19
Cc1cccc(-n2c(C)cc(C(=O)NS(C)(=O)=O)c2C)c1	13.51 & -9.035 & -15.27
CSc1ccccc1C(=O)NCCCN1CCc2ccccc2C1	6.77
CC(C)N1CCC(NCc2cccnc2N(C)C)CC1	-4.936
COc1ccc(F)cc1C(C)NC(=O)c1nnc(C)s1 (centres unmarked)	-9.458
COc1ncc(CN2CCCC(c3[nH]ncc3S(C)(=O)=O)C2)cn1 (centres unmarked)	2.845
O=C(Cc1ccccc1F)N1CCN(C(=O)c2ccoc2)CC1	-2.368
CC(C)=CCNC1CCCN(c2ccc(C)nn2)C1 (centres unmarked)	-1.643
CCc1nc(CN(C)C2CCN(CCC(=O)N3CCCCC3)C2)no1 (centres unmarked)	17.17
Cc1noc(C)c1CN(C)C(=O)c1ccc(C(N)=O)nc1	-16.25
CCOc1ccc(S(=O)(=O)NC(=O)CCC2CCCO2)cc1 (centres unmarked)	10.24
CS(=O)(=O)CCN1CCC2(CCCN(C3CCOCC3)C2=O)C1 (centres unmarked)	-13.38
O=C(NCc1ccccn1)c1cc2n(n1)CCNC2	3.044
CCN(Cc1noc(C)n1)C(=O)C(c1ccccc1C)N(C)C (centres unmarked)	2.738
CN[C@H]1CC[C@]2(CC1)CNC(=O)c1cc(C)ccc1O2	11.41
CSCC(CCO)Nc1cccc(C(F)(F)F)n1 (centres unmarked)	-18.73
CCC(CNC(=O)c1ccc(=O)[nH]n1)N1CCc2ccccc2C1 (centres unmarked)	-3.647
CC(C)c1cnc(CNc2c(F)cccc2-n2cccn2)o1	-4.255
COCC1CN(C(=O)CS(C)(=O)=O)Cc2ncn(CC3CC3)c21 (centres unmarked)	3.947
CNC(=O)C1CN(Cc2c[nH]cn2)CCN(C2CCOCC2)C1 (centres unmarked)	0.8223
O=C(NCC(Cc1cccc(F)c1)N1CCCC1=O)c1cnccn1 (centres unmarked)	2.479
O=C(c1ccccn1)N1CCCN(Cc2nnc(C3CC3)o2)CC1	0.6689
O=C(O)c1ccc(Cc2cccc(F)c2)nc1	13.18
Cc1ccccc1C(C(=O)N(Cc1cnn(C)c1)CC(C)C)N(C)C (centres unmarked)	5.148
COCC[C@]1(O)CCN(CC(=O)NCc2ccccc2C)C[C@H]1C	-0.9516
COCC(=O)NCc1cc(=O)n2c(n1)CN(Cc1cccs1)CCC2	-5.105
Cn1cnc(-c2nc(C(=O)NCCN3CCCC3)c3ccccn23)c1	4.685
O=C(O)CCCC(=O)NCC1(O)CCN(c2ccnc3cccnc23)C1 (centres unmarked)	5.513
O=C(O)C(F)(F)F.[H][C@@]12CCN(Cc3ccc(C)s3)C[C@]1([H])[C@H](c1nc(C)no1)CCO2	-6.54
NC(=O)C(NCc1nn(-c2ccccc2)c2c1CCC2)c1ccccc1 (centres unmarked)	14.5
CC(C)N(C)Cc1cnc2n1CCN(C(=O)NC1CCCC1)C2.O=C(O)C(F)(F)F	-6.574
O=C(Cc1ccc2c(c1)OCCO2)NCc1ccc(-n2cncn2)nc1	3.155

The first 3 entries again:

SMILES	percent effect
CCn1c(CN(C)CC(=O)N(C)C)nc2c(F)cccc21	-20.36
Cn1cc(CN2CCCN(C(=O)c3ccc4c(c3)COC4)CC2)cn1	0.7335
Cc1cc(C)c2c(NCC3(O)CCCCC3)ncnc2n1	-27.54

From ChEMBL document CHEMBL3988442, “University of Dundee, Small-Polar-MMV Screening Library” (2021).